Test system: BBS10^−/− mice
Experiment: Setmelanotide daily for one week, body weight and plasma and urine biomarker levels
Format: in vivo
Conditions: 1.25 mg/kg daily for one week, compared to vehicle or pair-fed mice
Description: In order to assess the effect of setmelanotide on body weight and the levels of certain biomarkers, BBS10^−/− mice were administered setmelanotide (1.25 mg/kg) daily for one week. […] However, setmelanotide treatment did result in an increase in urine calcium levels as well as an increase in urine creatine levels (FIG. 4).
Additional studies in these mice entailed measurement of blood plasma levels of the biomarkers leptin and adiponectin after treatment with setmelanotide (1.25 mg/kg). […] Further, the leptin: adiponectin ration was decreased in setmelanotide treated mice.

CC(=O)N[C@@H](CCCNC(=N)N)C(=O)N[C@H]1CSSC[C@@H](C(N)=O)NC(=O)[C@H](Cc2c[nH]c3ccccc23)NC(=O)[C@H](CCCNC(=N)N)NC(=O)[C@@H](Cc2ccccc2)NC(=O)[C@H](Cc2cnc[nH]2)NC(=O)[C@@H](C)NC1=O [setmelanotide, Ac-Arg-c (Cys-D-Ala-His-D-Phe-Arg-Trp-Cys)-NH2]
did not alter: blood plasma level of calcium | blood plasma level of chloride | blood plasma level of creatine | blood plasma level of glucose | blood plasma level of phosphorus | blood plasma level of potassium | blood plasma level of sodium
